From doi:10.1101/2025.10.17.683079
Results are given in words; binding and its absence hold for the method and conditions named. In cells and extracts the contact can be indirect. Some binding calls cover weakened binding; strength is not graded here.

Molecular target: T1, HDAC11 (mouse (endogenous in hippocampus)) (UniProt Q91WA3)
T1 sequence: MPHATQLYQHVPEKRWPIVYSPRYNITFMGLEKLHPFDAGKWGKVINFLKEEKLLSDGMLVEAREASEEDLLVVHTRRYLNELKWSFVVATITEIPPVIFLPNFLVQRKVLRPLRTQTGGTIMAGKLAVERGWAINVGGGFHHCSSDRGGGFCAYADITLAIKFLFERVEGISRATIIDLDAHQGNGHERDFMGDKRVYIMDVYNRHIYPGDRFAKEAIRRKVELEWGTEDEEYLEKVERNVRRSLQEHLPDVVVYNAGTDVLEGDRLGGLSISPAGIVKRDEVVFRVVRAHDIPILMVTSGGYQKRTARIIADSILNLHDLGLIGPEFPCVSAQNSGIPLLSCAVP
Experiment: co-IP

B1: NR1H2 (also known as LXRβ) (protein, UniProt Q60644 1-446)
chain: MSSPTSSLDTPVPGNGSPQPSTSATSPTIKEEGQETDPPPGSEGSSSAYIVVILEPEDEPERKRKKGPAPKMLGHELCRVCGDKASGFHYNVLSCEGCKGFFRRSVVHGGAGRYACRGSGTCQMDAFMRRKCQLCRLRKCKEAGMREQCVLSEEQIRKKRIQKQQQQQPPPPSEPAASSSGRPAASPGTSEASSQGSGEGEGIQLTAAQELMIQQLVAAQLQCNKRSFSDQPKVTPWPLGADPQSRDARQQRFAHFTELAIISVQEIVDFAKQVPGFLQLGREDQIALLKASTIEIMLLETARRYNHETECITFLKDFTYSKDDFHRAGLQVEFINPIFEFSRAMRRLGLDDAEYALLIAINIFSADRPNVQEPSRVEALQQPYVEALLSYTRIKRPQDQLRFPRMLMKLVSLRTLSSVHSEQVFALRLQDKKLPPLLSEIWDVHE
For B1, the binding was “binds”.
